System: NK cells / Ge-con target cells
Assay: 51Chromium release assay: lysis of Ge-con melanoma target cells by isolated NK cells
Type: cell-based, human
Details: TKD 2 μg/ml plus IL-2 5 days; SAHA 10 μM 20 h; interaction p=0.0003; especially at lower effector:target ratios; FIG. 10B
Experimental: The human melanoma cell line Ge, the Ge-Hsp70 and Ge-con sublines derived therefrom (clones Ge-Hsp70-A, Ge-Hsp70-C, Ge-TCR-C, and Ge-GFP-B) (15), mouse fibroblast L cells, and transfected L cells were maintained in NaHCO3-buffered DMEM supplemented with 10% FCS (Biochrom, Berlin, Germany), 2 mM L-glutamine, 1 mM sodium pyruvate, 50 μM 2-mercaptoethanol and antibiotics (100 U/ml penicillin, 100 μg/ml streptomycin) (Sigma) in Petri dishes for tissue culture (Sarstedt, Nümbrecht, Germany) at 37° C. in a 10% CO2 atmosphere. Human erythroleukemia K562 and mouse lymphoma YAC-1 cells were maintained under the same conditions in Petri dishes for suspension cells (Sarstedt). To induce MICA and MICB expression, Ge cells were cultured in DMEM with 10 μM of the histone deacetylase inhibitor suberoylanilide hydroxyamic acid (SAHA) 20 h before the tests (24). L cells were co-transfected by electroporation with 30 μg of the cosmid […] (25) containing the MIC3 gene of the rhesus macaque (Macaca mulatta) which is orthologous to human MICA, and with 1 μg of the dsRED vector (Clontech, Mountain View, USA), which confers resistance to geneticin (Invitrogen, Karlsruhe, Germany). […] MICA mRNA expression was analyzed by Northern blot and cell surface expression by flow cytometry. […] Spontaneous release was determined by incubation of target cells in the absence of effector cells. […]

O=C(CCCCCCC(=O)Nc1ccccc1)NO [SAHA, suberoylanilide hydroxyamic acid]
killing of Ge-con target cells: combination of TKD treatment of NK cells and SAHA treatment of target cells: acted synergistically

Reference: patent US20100034772A1, “COMPOSITIONS AND METHODS FOR IMMUNOTHERAPY” (priority 2006, published 2010)
